Consider 94 targets from the supplement of paper PMC10060354, “Discovery of a small molecule ligand of FRS2 that inhibits invasion and tumor growth” (Cellular Oncology, 2022).

The chains behind the UniProt entries cited, without tags or fusion partners. Where a name states a change or a piece, a line headed by the entry shows the natural chain unless it says otherwise.
UniProt Q9UEY8: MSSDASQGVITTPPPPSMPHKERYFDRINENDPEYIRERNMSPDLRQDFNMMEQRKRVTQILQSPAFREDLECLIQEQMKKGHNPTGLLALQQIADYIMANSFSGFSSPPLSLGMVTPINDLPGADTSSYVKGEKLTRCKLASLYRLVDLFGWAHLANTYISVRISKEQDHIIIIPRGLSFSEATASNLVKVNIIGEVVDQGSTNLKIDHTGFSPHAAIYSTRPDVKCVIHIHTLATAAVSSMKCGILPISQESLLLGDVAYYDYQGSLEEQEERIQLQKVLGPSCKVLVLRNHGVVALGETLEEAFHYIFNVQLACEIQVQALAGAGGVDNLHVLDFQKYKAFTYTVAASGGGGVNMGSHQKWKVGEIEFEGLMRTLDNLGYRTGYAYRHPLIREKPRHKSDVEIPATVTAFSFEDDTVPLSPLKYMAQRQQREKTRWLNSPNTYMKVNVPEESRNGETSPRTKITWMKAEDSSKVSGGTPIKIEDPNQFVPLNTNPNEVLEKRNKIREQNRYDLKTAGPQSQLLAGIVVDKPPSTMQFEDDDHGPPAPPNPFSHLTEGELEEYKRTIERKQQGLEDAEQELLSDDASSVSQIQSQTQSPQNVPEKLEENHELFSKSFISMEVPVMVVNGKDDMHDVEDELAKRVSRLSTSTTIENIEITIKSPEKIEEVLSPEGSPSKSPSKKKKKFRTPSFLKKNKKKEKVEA
UniProt Q9NQW7: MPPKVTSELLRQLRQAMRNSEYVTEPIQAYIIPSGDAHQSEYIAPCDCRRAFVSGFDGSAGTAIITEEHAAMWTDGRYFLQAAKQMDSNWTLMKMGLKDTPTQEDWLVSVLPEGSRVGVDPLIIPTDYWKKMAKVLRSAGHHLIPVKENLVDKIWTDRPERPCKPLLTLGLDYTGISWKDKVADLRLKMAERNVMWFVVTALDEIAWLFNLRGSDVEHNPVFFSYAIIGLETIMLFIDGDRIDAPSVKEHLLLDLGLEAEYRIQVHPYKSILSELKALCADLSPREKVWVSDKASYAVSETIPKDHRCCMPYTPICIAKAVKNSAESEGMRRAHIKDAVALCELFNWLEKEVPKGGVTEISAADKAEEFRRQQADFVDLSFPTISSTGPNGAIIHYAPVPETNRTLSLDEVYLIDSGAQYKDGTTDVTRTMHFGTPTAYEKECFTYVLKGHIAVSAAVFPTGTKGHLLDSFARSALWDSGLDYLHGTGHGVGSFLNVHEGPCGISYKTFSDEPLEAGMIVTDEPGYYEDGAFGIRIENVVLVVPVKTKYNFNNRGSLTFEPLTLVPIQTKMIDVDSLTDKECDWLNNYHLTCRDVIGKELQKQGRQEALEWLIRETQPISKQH
UniProt P08047, whole entry: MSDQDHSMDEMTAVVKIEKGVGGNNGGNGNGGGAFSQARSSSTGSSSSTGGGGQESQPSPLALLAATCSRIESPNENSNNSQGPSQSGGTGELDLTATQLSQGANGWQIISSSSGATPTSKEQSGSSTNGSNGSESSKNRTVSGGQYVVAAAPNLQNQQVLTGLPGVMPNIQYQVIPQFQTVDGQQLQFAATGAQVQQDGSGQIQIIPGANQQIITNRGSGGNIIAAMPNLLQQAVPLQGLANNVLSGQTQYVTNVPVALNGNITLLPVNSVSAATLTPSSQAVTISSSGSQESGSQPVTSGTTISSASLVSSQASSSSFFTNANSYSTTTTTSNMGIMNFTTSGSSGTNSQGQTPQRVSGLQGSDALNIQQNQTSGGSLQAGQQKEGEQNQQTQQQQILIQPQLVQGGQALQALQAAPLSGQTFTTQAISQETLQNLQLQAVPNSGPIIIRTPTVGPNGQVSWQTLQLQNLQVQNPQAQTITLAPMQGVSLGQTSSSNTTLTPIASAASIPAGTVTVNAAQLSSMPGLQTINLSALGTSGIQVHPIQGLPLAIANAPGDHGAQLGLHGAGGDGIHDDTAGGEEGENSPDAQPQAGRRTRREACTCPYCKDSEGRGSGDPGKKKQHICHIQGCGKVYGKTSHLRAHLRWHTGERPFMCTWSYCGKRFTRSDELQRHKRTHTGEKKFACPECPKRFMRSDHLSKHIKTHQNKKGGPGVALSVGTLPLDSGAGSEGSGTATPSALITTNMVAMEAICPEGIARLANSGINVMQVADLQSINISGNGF
UniProt Q96BT7: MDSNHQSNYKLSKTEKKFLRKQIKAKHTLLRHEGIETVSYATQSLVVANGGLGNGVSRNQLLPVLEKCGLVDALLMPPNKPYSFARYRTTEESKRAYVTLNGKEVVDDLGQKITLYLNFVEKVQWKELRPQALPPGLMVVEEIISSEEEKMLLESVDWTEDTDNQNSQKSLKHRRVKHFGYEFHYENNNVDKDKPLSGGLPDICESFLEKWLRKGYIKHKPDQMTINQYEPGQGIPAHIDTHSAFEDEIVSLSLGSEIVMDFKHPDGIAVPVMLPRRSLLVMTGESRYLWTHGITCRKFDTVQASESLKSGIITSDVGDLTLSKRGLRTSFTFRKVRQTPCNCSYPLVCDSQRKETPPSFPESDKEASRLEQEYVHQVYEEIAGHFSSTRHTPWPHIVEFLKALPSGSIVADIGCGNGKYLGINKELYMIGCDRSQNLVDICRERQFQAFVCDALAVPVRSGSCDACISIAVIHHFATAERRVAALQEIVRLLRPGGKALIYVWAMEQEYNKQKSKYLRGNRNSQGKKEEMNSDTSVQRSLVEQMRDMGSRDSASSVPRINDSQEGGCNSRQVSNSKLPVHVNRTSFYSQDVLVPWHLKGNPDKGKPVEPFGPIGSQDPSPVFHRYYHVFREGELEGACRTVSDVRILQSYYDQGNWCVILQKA
UniProt O43916: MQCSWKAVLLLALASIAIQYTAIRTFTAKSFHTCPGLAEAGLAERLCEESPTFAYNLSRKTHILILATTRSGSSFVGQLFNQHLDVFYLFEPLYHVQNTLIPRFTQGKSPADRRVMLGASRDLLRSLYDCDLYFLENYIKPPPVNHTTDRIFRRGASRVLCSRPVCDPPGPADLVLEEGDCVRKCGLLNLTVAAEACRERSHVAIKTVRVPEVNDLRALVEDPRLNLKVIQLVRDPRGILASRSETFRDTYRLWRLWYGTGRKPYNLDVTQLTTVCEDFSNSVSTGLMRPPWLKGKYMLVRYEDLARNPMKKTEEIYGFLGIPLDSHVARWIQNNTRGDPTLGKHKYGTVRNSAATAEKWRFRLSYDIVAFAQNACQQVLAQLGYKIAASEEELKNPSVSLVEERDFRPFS
UniProt P18754: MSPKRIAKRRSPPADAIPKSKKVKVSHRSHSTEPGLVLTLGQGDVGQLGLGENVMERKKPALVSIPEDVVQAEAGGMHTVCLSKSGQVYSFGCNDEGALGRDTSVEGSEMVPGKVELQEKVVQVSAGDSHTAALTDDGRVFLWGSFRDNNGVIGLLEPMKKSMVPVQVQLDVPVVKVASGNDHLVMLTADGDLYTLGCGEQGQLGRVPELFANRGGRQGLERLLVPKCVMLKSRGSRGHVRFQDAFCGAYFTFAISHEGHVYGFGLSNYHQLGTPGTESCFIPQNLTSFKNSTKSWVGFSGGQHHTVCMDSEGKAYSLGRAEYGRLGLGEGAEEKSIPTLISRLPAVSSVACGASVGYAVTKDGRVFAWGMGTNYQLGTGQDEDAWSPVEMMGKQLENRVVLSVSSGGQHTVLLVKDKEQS
UniProt Q6PJG6: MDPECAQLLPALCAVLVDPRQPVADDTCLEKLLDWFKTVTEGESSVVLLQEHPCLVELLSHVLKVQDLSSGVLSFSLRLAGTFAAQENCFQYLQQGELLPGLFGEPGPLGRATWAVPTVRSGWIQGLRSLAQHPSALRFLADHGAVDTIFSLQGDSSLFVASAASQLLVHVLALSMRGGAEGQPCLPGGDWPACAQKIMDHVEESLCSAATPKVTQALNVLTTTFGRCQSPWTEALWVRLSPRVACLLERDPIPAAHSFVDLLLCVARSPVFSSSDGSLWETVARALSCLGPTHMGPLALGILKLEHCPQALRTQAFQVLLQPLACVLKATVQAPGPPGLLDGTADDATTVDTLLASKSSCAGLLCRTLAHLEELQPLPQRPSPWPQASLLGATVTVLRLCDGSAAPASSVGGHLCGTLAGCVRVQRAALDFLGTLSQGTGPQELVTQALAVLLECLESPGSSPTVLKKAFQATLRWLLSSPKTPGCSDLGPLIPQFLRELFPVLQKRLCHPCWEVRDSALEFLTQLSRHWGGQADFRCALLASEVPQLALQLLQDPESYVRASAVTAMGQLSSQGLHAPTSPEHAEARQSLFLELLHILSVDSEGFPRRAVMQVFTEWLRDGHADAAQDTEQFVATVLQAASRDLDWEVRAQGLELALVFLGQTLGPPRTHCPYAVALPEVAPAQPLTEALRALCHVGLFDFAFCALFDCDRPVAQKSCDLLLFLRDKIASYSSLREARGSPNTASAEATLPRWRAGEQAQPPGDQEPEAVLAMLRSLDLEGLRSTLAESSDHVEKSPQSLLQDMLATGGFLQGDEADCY
UniProt Q4G0X4: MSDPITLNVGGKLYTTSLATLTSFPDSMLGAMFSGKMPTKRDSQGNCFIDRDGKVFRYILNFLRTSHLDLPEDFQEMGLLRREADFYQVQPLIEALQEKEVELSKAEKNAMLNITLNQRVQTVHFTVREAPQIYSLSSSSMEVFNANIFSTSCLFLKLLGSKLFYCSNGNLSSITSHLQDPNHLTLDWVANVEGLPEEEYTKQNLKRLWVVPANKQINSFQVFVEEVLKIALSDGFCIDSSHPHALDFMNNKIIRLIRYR
UniProt Q8N4H5: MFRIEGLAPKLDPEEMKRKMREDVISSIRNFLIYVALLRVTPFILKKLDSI
UniProt Q5JPE7: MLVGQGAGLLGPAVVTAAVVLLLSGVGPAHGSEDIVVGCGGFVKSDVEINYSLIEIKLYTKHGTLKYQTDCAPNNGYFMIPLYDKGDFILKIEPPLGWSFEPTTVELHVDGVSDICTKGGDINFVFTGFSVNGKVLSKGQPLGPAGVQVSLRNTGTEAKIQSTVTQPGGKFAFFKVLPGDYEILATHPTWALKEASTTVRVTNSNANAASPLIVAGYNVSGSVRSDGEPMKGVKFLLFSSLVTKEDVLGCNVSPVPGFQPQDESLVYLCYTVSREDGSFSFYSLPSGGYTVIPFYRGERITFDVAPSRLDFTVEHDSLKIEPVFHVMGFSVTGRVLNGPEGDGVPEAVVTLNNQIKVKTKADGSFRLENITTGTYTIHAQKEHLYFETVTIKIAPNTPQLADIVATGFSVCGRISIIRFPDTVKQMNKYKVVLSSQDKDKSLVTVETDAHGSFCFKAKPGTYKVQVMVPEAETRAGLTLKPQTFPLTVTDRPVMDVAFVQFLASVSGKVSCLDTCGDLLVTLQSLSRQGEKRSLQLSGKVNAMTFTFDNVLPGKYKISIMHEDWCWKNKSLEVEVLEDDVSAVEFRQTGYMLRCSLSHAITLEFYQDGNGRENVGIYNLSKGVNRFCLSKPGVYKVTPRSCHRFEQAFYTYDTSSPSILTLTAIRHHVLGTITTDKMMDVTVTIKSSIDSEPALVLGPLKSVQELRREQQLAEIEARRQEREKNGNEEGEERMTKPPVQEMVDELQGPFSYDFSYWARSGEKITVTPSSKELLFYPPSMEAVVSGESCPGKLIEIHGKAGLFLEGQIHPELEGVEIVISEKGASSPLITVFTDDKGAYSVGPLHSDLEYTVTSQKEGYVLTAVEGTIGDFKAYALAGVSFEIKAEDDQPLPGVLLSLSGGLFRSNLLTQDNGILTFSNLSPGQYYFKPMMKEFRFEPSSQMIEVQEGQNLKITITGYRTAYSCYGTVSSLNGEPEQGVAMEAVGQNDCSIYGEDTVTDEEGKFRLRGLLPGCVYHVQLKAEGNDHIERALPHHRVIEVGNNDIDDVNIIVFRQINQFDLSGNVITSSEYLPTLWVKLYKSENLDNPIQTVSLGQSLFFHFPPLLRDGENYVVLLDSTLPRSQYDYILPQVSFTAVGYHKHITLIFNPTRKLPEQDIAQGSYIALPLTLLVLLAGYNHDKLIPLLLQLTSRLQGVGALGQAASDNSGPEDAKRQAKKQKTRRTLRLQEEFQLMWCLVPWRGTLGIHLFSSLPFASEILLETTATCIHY
UniProt Q8IU81: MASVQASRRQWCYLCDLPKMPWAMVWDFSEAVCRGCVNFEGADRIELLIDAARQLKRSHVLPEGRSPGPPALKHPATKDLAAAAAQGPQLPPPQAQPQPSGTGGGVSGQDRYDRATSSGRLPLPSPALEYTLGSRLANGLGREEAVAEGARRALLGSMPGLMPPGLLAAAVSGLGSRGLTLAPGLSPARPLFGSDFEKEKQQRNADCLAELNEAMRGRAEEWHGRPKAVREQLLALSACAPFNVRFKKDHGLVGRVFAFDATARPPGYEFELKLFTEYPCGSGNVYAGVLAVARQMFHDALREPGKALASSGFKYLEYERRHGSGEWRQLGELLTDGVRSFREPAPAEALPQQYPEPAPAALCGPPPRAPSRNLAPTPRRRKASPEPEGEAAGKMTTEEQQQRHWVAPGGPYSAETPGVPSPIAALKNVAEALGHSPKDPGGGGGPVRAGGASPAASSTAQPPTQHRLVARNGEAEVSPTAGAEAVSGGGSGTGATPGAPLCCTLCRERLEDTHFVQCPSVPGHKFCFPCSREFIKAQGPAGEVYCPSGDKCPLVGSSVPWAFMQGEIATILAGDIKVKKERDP

Compound in the assay: [O-][N+](C(C1=C(C(O)=C2)NC(C(C=C3)=CC=C3Cl)C4C1C=CC4)=C2Cl)=O
Description: melting temperature shift (compound 7 minus DMSO); higher = compound stabilises the protein. To be noted: 10 µM. Here is the method: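 Thermal proteome profiling (TMT mass spectrometry) in intact DAOY medulloblastoma cells or DAOY lysates treated with 10 µM compound 7 or DMSO, heated at 10 temperatures from 40.5 to 73.8 °C for 3 min. Melting curves were fitted with the Bioconductor TPP package, and the melting point difference between compound and vehicle is reported per protein (single curve per condition).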

Where [1] appears, read: system: DAOY cell lysate, treatment time: 20 min, 4 °C.
Setting [2] is: system: intact DAOY cells, treatment time: 90 min, 37 °C.

Repeats are few or missing, and single values can be far off.

As for ADD3 (UniProt Q9UEY8), the melting temperature shift is, setting by setting: under setting [1], -0.827 °C; under setting [2], 0.533 °C.
The like results for XPO6 (UniProt Q96QU8) were, in that order, -0.845 °C and -0.622 °C.
Take PPP1CB (UniProt P62140): the melting temperature shift under setting [1] is -0.244 °C and the melting temperature shift under setting [2] is 0.0352 °C.
As to ITFG1 (UniProt Q8TB96), under setting [1], the melting temperature shift is -0.927 °C.
In the case of ABCF2 (UniProt Q9UG63), the melting temperature shift by setting is: under setting [1], -0.727 °C; under setting [2], -1.9 °C.
The like results for HSPD1 (UniProt P10809) were, in that order, 0.707 °C and -0.47 °C.
The like results for GLO1 (UniProt Q04760) were, in that order, -1.06 °C and 0.925 °C.
The like results for RALA (UniProt P11233) were, in that order, 2.14 °C and 0.819 °C.
Consider UniProt Q96NI8, for which the melting temperature shift under setting [2] was -0.306 °C.
For SDHA (UniProt P31040), the melting temperature shift was determined as 1.91 °C under setting [1] and 0.29 °C under setting [2].
Take TIMP1 (UniProt P01033): the melting temperature shift under setting [1] came to 0.795 °C.
Same read-out and setting: the same measure for ZNF281 (UniProt Q9Y2X9): -1.03 °C.
As for ENO1 (UniProt P06733), the melting temperature shift reads like this: under setting [1], -0.32 °C; under setting [2], -0.406 °C.
Turning to TMED3 (UniProt Q9Y3Q3), the melting temperature shift under setting [2] was -0.124 °C.
For AGFG1 (UniProt P52594), the melting temperature shift is -1.04 °C under setting [1] and -0.0377 °C under setting [2].
As to UniProt Q96FB5, under setting [1], the melting temperature shift is -2.13 °C.
Consider PIK3CD (UniProt O00329), for which the melting temperature shift under setting [1] is 2.35 °C and the melting temperature shift under setting [2] was 1.17 °C.
WFS1 (UniProt O76024): the melting temperature shift is 0.407 °C under setting [1] and -0.807 °C under setting [2].
The matching figures for POLDIP2 (UniProt Q9Y2S7): 0.783 °C and -0.9 °C.
The like results for XPNPEP1 (UniProt Q9NQW7) were, in that order, -0.148 °C and 1.04 °C.
IDH3A (UniProt P50213): the melting temperature shift was 1.3 °C under setting [1] and -0.615 °C under setting [2].
Take UniProt Q8WZ73: the melting temperature shift under setting [1] was -1.42 °C.
On to YWHAZ (UniProt P63104), for which the melting temperature shift under setting [1] is -1.02 °C and the melting temperature shift under setting [2] came to 0.567 °C.
For TRAM1 (UniProt Q15629), under setting [1], the melting temperature shift is 1.03 °C.
Regarding RPS19 (UniProt P39019), the melting temperature shift was 0.895 °C under setting [1] and -0.328 °C under setting [2].
Turning to UniProt Q6S5L8, the melting temperature shift under setting [2] came out at 0.336 °C.
Still for that read-out and setting: the same measure for UniProt Q86XE0: -2.79 °C; for SP1 (UniProt P08047): 1.12 °C.
On to BLOC1S1 (UniProt P78537), for which, under setting [1], the melting temperature shift was -0.0158 °C.
With GLT8D1 (UniProt Q68CQ7), the melting temperature shift under setting [1] was found to be 2.43 °C.
Same read-out and setting: the result for ARSA (UniProt P15289) reads -1.08 °C.
In the case of TPP2 (UniProt P29144), the melting temperature shift reads like this: under setting [1], -0.235 °C; under setting [2], -0.425 °C.
For UniProt Q96BT7, the melting temperature shift reads like this: under setting [1], 0.527 °C; under setting [2], 4.01 °C.
The like results for C16ORF58 (UniProt Q96GQ5) were, in that order, -1.11 °C and -0.0684 °C.
Take UniProt O43916: the melting temperature shift under setting [1] came to 0.488 °C.
For HTT (UniProt P42858), the melting temperature shift is -0.108 °C under setting [1] and 0.235 °C under setting [2].
As for UniProt O75923, under setting [2], the melting temperature shift stood at 0.164 °C.
For GRSF1 (UniProt Q12849), the melting temperature shift under setting [1] was 0.864 °C and the melting temperature shift under setting [2] amounted to 0.634 °C.
As for UniProt P14317, the melting temperature shift under setting [1] is 2.07 °C.
For the target PDAP1 (UniProt Q13442), the melting temperature shift under setting [1] was -2.76 °C.
As to ARPC3 (UniProt O15145), the melting temperature shift is, setting by setting: under setting [1], -0.265 °C; under setting [2], 0.565 °C.
For the target ZMYM4 (UniProt Q5VZL5), the melting temperature shift under setting [1] is -1.06 °C.
On to SLC2A1 (UniProt P11166), for which, under setting [1], the melting temperature shift was found to be 2.5 °C.
For the target NUP37 (UniProt Q8NFH4), the melting temperature shift is -0.0953 °C under setting [1] and 0.811 °C under setting [2].
The matching figures for MAN1A2 (UniProt O60476): 1.31 °C and -0.91 °C.
Take UniProt Q3LIE5: the melting temperature shift under setting [1] was -1.7 °C.
On the same count and under the same terms, the result for UniProt Q8NDX5 reads 1.74 °C.
On to UniProt Q14119, for which, under setting [2], the melting temperature shift was -1.29 °C.
As to KIAA1522 (UniProt Q9P206), the melting temperature shift under setting [1] was -3.8 °C.
For UniProt Q562R1, the melting temperature shift was -1.75 °C under setting [1] and 4.81 °C under setting [2].
The like results for CHST14 (UniProt Q8NCH0) were, in that order, 1.07 °C and -0.816 °C.
As to UniProt Q9P291, the melting temperature shift was -0.252 °C under setting [1] and -1.39 °C under setting [2].
Take RNF34 (UniProt Q969K3): under setting [1], the melting temperature shift is -1.24 °C.
With UniProt O60361, the melting temperature shift under setting [2] was -0.262 °C.
Turning to PHLDB2 (UniProt Q86SQ0), the melting temperature shift under setting [1] is -0.236 °C and the melting temperature shift under setting [2] was -1.03 °C.
On to PCID2 (UniProt Q5JVF3), for which the melting temperature shift is -1.2 °C under setting [1] and -1.37 °C under setting [2].
With FAM96A (UniProt Q9H5X1), the melting temperature shift under setting [2] was -0.828 °C.
For GALNT10 (UniProt Q86SR1), under setting [1], the melting temperature shift worked out at 3.12 °C.
On to RCC1 (UniProt P18754), for which the melting temperature shift under setting [1] came out at 0.26 °C and the melting temperature shift under setting [2] was 0.0698 °C.
The like results for GID8 (UniProt Q9NWU2) were, in that order, -1.19 °C and -0.316 °C.
The matching figures for TCAF1 (UniProt Q9Y4C2): -0.694 °C and 0.0801 °C.
For the target ZNF143 (UniProt P52747), the melting temperature shift under setting [1] was 2.86 °C.
With UniProt Q8N239, the melting temperature shift under setting [2] was 0.0487 °C.
Regarding SFXN3 (UniProt Q9BWM7), the melting temperature shift under setting [1] amounted to 0.985 °C and the melting temperature shift under setting [2] was -1.1 °C.
The like results for CECR5 (UniProt Q9BXW7) were, in that order, 1.61 °C and -0.279 °C.
The matching figures for TNRC6B (UniProt Q9UPQ9): -0.879 °C and -2.22 °C.
The matching figures for P0CG08 (UniProt B7ZAQ6): -1.11 °C and -2.77 °C.
On to BRAT1 (UniProt Q6PJG6), for which the melting temperature shift by setting is: under setting [1], -1.18 °C; under setting [2], 1.55 °C.
Take UniProt P07737: the melting temperature shift reads like this: under setting [1], -0.333 °C; under setting [2], -0.243 °C.
In the case of UniProt P00750, the melting temperature shift under setting [2] amounted to 6.23 °C.
Take PGM2L1 (UniProt Q6PCE3): the melting temperature shift was -0.728 °C under setting [1] and 0.706 °C under setting [2].
Turning to UniProt Q4G0X4, under setting [1], the melting temperature shift is -1.59 °C.
On to IKBKAP (UniProt O95163), for which the melting temperature shift is, setting by setting: under setting [1], -0.218 °C; under setting [2], 0.718 °C.
For the target KRR1 (UniProt Q13601), the melting temperature shift under setting [1] came out at 1.28 °C.
Turning to HSD17B4 (UniProt P51659), the melting temperature shift is 0.905 °C under setting [1] and -0.075 °C under setting [2].
OSBPL1A (UniProt Q9BXW6): the melting temperature shift is, setting by setting: under setting [1], 0.146 °C; under setting [2], -1.96 °C.
Regarding DUS3L (UniProt Q96G46), the melting temperature shift is 1.01 °C under setting [1] and -0.749 °C under setting [2].
The like results for EXOC8 (UniProt Q8IYI6) were, in that order, 0.107 °C and -0.706 °C.
Turning to RPS6KA6 (UniProt Q9UK32), under setting [2], the melting temperature shift was 0.105 °C.
Take UniProt Q9P003: the melting temperature shift is 0.222 °C under setting [1] and -0.0849 °C under setting [2].
The like results for UniProt Q8N4H5 were, in that order, 1.98 °C and 6.74 °C.
Take NOMO2 (UniProt Q5JPE7): the melting temperature shift under setting [2] is -0.189 °C.
As to BNIP2 (UniProt Q12982), the melting temperature shift was 1.06 °C under setting [1] and -0.493 °C under setting [2].
Turning to IMPACT (UniProt Q9P2X3), the melting temperature shift runs as follows: under setting [1], -1.29 °C; under setting [2], -0.893 °C.
The like results for RAB5A (UniProt P20339) were, in that order, -0.101 °C and -0.318 °C.
Turning to UniProt P16118, the melting temperature shift under setting [2] was determined as 2.45 °C.
Consider IRF2BP1 (UniProt Q8IU81), for which the melting temperature shift was -0.602 °C under setting [1] and 0.249 °C under setting [2].
The matching figures for PTPRK (UniProt Q15262): -1.82 °C and 1.57 °C.
The like results for JMJD6 (UniProt Q6NYC1) were, in that order, -0.0191 °C and -1.36 °C.
The matching figures for UniProt Q6UY01: -0.345 °C and 0.157 °C.
For the target PRPF18 (UniProt Q99633), the melting temperature shift under setting [1] is 1.46 °C.
Still for that read-out and setting: the result for SDAD1 (UniProt Q9NVU7) reads 0.351 °C.
Consider GPCPD1 (UniProt Q9NPB8), for which the melting temperature shift by setting is: under setting [1], -1.24 °C; under setting [2], 0.227 °C.
The like results for ZW10 (UniProt O43264) were, in that order, -0.362 °C and -0.547 °C.
